{"source": "PubChem BioAssay AID504744 (Drosophila RNAi Screening Center, 2011)", "assay": "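Uncover factors, including feedback loops, that control dAkt activation in fly cells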 (primary screen)", "system": "Drosophila Kc167 cells", "reagent": "long dsRNA against Drosophila genes, 250 ng dsRNA per well of a 384-well plate", "timing": "3 days of knock-down, then overnight serum-free starvation before stimulation", "conditions": "bovine insulin at 387 nM for 10 minutes after 12 h without serum", "measurement": "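In-cell antibody fluorescence for phospho-dAkt in each well over DNA-dye signal, with log2 residuals expressed as z-scores adjusted for cell count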", "call rule": "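Under insulin, a gene counts as a hit if the average z-score of two replicates lies above 2.5 or below -2.5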", "note": "In all, the deposit lists about 23,000 reagents; below is a random part of those with a known target gene and a result. Over the whole deposit, 98 (0.43%) got an active call. 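Only hit calls are given; the phospho-dAkt signals, z-scores and hit direction were not deposited.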 Names joined by + are all predicted targets of the reagent."}
{"gene knocked down": "CG9014", "amplicon": "DRSC01979", "activity call": "inactive"}
{"gene knocked down": "fos28F (retired record)", "amplicon": "DRSC03391", "activity call": "inactive"}
{"gene knocked down": "CG8326", "amplicon": "DRSC20103", "activity call": "inactive"}
{"gene knocked down": "btl", "amplicon": "DRSC11331", "activity call": "inactive"}
{"gene knocked down": "Vps11", "amplicon": "DRSC11909", "activity call": "inactive"}
{"gene knocked down": "Vps11", "amplicon": "DRSC21579", "activity call": "inactive"}
{"gene knocked down": "Mtch", "amplicon": "DRSC08679", "activity call": "inactive"}
{"gene knocked down": "Vmat", "amplicon": "DRSC06961", "activity call": "inactive"}
{"gene knocked down": "Vmat", "amplicon": "DRSC06962", "activity call": "inactive"}
{"gene knocked down": "Vmat", "amplicon": "DRSC22223", "activity call": "inactive"}
{"gene knocked down": "park + Targ3", "amplicon": "DRSC11617", "activity call": "inactive"}
{"gene knocked down": "Nplp4", "amplicon": "DRSC00391", "activity call": "inactive"}
{"gene knocked down": "CG33630", "amplicon": "DRSC14546", "activity call": "inactive"}
{"gene knocked down": "Eig71Ec", "amplicon": "DRSC11150", "activity call": "inactive"}
{"gene knocked down": "CG3702", "amplicon": "DRSC00628", "activity call": "inactive"}
{"gene knocked down": "hbs", "amplicon": "DRSC07627", "activity call": "inactive"}
{"gene knocked down": "Sik2", "amplicon": "DRSC18522", "activity call": "inactive"}
{"gene knocked down": "CG14374", "amplicon": "DRSC14834", "activity call": "inactive"}
{"gene knocked down": "ND-51L1", "amplicon": "DRSC06072", "activity call": "inactive"}
{"gene knocked down": "nis", "amplicon": "DRSC00290", "activity call": "inactive"}
{"gene knocked down": "Smvt", "amplicon": "DRSC15426", "activity call": "inactive"}
{"gene knocked down": "Cpr66D", "amplicon": "DRSC10640", "activity call": "inactive"}
{"gene knocked down": "Cpr66D", "amplicon": "DRSC10646", "activity call": "inactive"}
{"gene knocked down": "SA2", "amplicon": "DRSC08385", "activity call": "inactive"}
{"gene knocked down": "Agxt", "amplicon": "DRSC18718", "activity call": "inactive"}
{"gene knocked down": "CG14551", "amplicon": "DRSC14894", "activity call": "inactive"}
{"gene knocked down": "Nepl19", "amplicon": "DRSC14875", "activity call": "inactive"}
{"gene knocked down": "Panx", "amplicon": "DRSC04563", "activity call": "inactive"}
{"gene knocked down": "Gr94a", "amplicon": "DRSC13597", "activity call": "inactive"}
{"gene knocked down": "Ugt37A2", "amplicon": "DRSC15861", "activity call": "inactive"}
{"gene knocked down": "Mlp60A", "amplicon": "DRSC04623", "activity call": "inactive"}
{"gene knocked down": "Mlp60A", "amplicon": "DRSC22233", "activity call": "inactive"}
{"gene knocked down": "Mlp60A", "amplicon": "DRSC22481", "activity call": "inactive"}
{"gene knocked down": "Cul3", "amplicon": "DRSC03537", "activity call": "inactive"}
{"gene knocked down": "Cul3", "amplicon": "DRSC21525", "activity call": "inactive"}
{"gene knocked down": "CG15522", "amplicon": "DRSC15059", "activity call": "inactive"}
{"gene knocked down": "Pgant6", "amplicon": "DRSC08552", "activity call": "inactive"}
{"gene knocked down": "Fmo-1", "amplicon": "DRSC04328", "activity call": "inactive"}
{"gene knocked down": "fabp + sea", "amplicon": "DRSC16114", "activity call": "inactive"}
{"gene knocked down": "fabp + sea", "amplicon": "DRSC16115", "activity call": "inactive"}
{"gene knocked down": "Sec10", "amplicon": "DRSC17053", "activity call": "inactive"}
{"gene knocked down": "CG6429", "amplicon": "DRSC06986", "activity call": "inactive"}
{"gene knocked down": "CG13001", "amplicon": "DRSC19520", "activity call": "inactive"}
{"gene knocked down": "CG13001", "amplicon": "DRSC22443", "activity call": "inactive"}
{"gene knocked down": "CG8132", "amplicon": "DRSC16383", "activity call": "inactive"}
{"gene knocked down": "CG13016", "amplicon": "DRSC06271", "activity call": "inactive"}
{"gene knocked down": "Cdk8", "amplicon": "DRSC11113", "activity call": "inactive"}
{"gene knocked down": "CG5510", "amplicon": "DRSC15823", "activity call": "inactive"}
{"gene knocked down": "CG6136", "amplicon": "DRSC15975", "activity call": "inactive"}
{"gene knocked down": "pps", "amplicon": "DRSC16057", "activity call": "inactive"}
{"gene knocked down": "CheB53a", "amplicon": "DRSC06625", "activity call": "inactive"}
{"gene knocked down": "CG18598", "amplicon": "DRSC15356", "activity call": "inactive"}
{"gene knocked down": "Chmp1", "amplicon": "DRSC10401", "activity call": "inactive"}
{"gene knocked down": "CG32391", "amplicon": "DRSC08865", "activity call": "inactive"}
{"gene knocked down": "CG4133", "amplicon": "DRSC00639", "activity call": "inactive"}
{"gene knocked down": "TwdlC", "amplicon": "DRSC14749", "activity call": "inactive"}
{"gene knocked down": "CG10565", "amplicon": "DRSC11620", "activity call": "inactive"}
{"gene knocked down": "CG7059", "amplicon": "DRSC16187", "activity call": "inactive"}
{"gene knocked down": "Pvf1", "amplicon": "DRSC20024", "activity call": "inactive"}
{"gene knocked down": "Ype", "amplicon": "DRSC20301", "activity call": "inactive"}
{"gene knocked down": "Sara", "amplicon": "DRSC04653", "activity call": "inactive"}
{"gene knocked down": "MTA1-like", "amplicon": "DRSC12382", "activity call": "inactive"}
{"gene knocked down": "MTA1-like", "amplicon": "DRSC22022", "activity call": "inactive"}
{"gene knocked down": "ec", "amplicon": "DRSC17285", "activity call": "inactive"}
{"gene knocked down": "ec", "amplicon": "DRSC17286", "activity call": "inactive"}
{"gene knocked down": "ec", "amplicon": "DRSC18658", "activity call": "inactive"}
{"gene knocked down": "heca", "amplicon": "DRSC16964", "activity call": "inactive"}
{"gene knocked down": "CG30324", "amplicon": "DRSC22655", "activity call": "inactive"}
{"gene knocked down": "CG33278", "amplicon": "DRSC10336", "activity call": "inactive"}
{"gene knocked down": "stg", "amplicon": "DRSC17071", "activity call": "inactive"}
{"gene knocked down": "CG14736", "amplicon": "DRSC14956", "activity call": "inactive"}
{"gene knocked down": "Obp83ef", "amplicon": "DRSC12268", "activity call": "inactive"}
{"gene knocked down": "Act87E", "amplicon": "DRSC22578", "activity call": "inactive"}

Not a retest: an excerpt of the list.
{"gene knocked down": "Panx", "amplicon": "DRSC04563", "activity call": "inactive"}
{"gene knocked down": "Gr94a", "amplicon": "DRSC13597", "activity call": "inactive"}
{"gene knocked down": "Ugt37A2", "amplicon": "DRSC15861", "activity call": "inactive"}
{"gene knocked down": "Mlp60A", "amplicon": "DRSC04623", "activity call": "inactive"}
{"gene knocked down": "Mlp60A", "amplicon": "DRSC22233", "activity call": "inactive"}
{"gene knocked down": "Mlp60A", "amplicon": "DRSC22481", "activity call": "inactive"}
